This note sets out measurements from the supplement of paper PMC8728848.

Experiment in all cases: glycan array binding signal (z-score within array); higher = stronger binding
What all share (conditions): glycan notation: IUPAC condensed, linker removed

Assay [1] deals with Gal(b1-4)GlcNAc(b1-3)Gal(b1-4)GlcNAc(b1-3)Gal(b1-4)GlcNAc(b1-2)Man(a1-3)[Gal(b1-4)GlcNAc(b1-3)Gal(b1-4)GlcNAc(b1-3)Gal(b1-4)GlcNAc(b1-2)Man(a1-6)]Man(b1-4)GlcNAc(b1-4)GlcNAc. In a few lines: (§1)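 Glycan array binding is given as a within-array Z-score, which can be read as non-binding when negative. The arrays, 3228 of them, came from the Consortium for Functional Glycomics database and were retained only where the protein sequence was available. Z-scores were averaged across arrays of the same protein sequence at different concentrations or buffers and across linkers.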

For assay [2], the target named is Gal(b1-4)GlcNAc(b1-3)Gal(b1-4)GlcNAc(b1-3)Gal(b1-4)GlcNAc(b1-2)Man(a1-3)[Gal(b1-4)GlcNAc(b1-3)Gal(b1-4)GlcNAc(b1-3)Gal(b1-4)GlcNAc(b1-2)Man(a1-6)]Man(b1-4)GlcNAc(b1-4)[Fuc(a1-6)]GlcNAc. An outline of the steps:
as §1

For assay [3], the target named is Gal(b1-4)GlcNAc(b1-3)Gal(b1-4)GlcNAc(b1-3)Gal(b1-4)GlcNAc(b1-2)[Gal(b1-4)GlcNAc(b1-3)Gal(b1-4)GlcNAc(b1-3)Gal(b1-4)GlcNAc(b1-6)]Man(a1-6)[Gal(b1-4)GlcNAc(b1-3)Gal(b1-4)GlcNAc(b1-3)Gal(b1-4)GlcNAc(b1-2)Man(a1-3)]Man(b1-4)GlcNAc(b1-4)[Fuc(a1-6)]GlcNAc. In a few lines: as §1
The target of assay [4] is Gal(b1-4)GlcNAc(b1-3)Gal(b1-4)GlcNAc(b1-3)Gal(b1-4)GlcNAc(b1-3)Gal(b1-4)GlcNAc(b1-2)Man(a1-3)[Gal(b1-4)GlcNAc(b1-3)Gal(b1-4)GlcNAc(b1-3)Gal(b1-4)GlcNAc(b1-3)Gal(b1-4)GlcNAc(b1-2)Man(a1-6)]Man(b1-4)GlcNAc(b1-4)GlcNAc. In a few lines: as §1
Assay [5] concerns the target Gal(b1-4)GlcNAc(b1-3)Gal(b1-4)GlcNAc(b1-3)Gal(b1-4)GlcNAc(b1-3)Gal(b1-4)GlcNAc(b1-2)Man(a1-3)[Gal(b1-4)GlcNAc(b1-3)Gal(b1-4)GlcNAc(b1-3)Gal(b1-4)GlcNAc(b1-3)Gal(b1-4)GlcNAc(b1-2)Man(a1-6)]Man(b1-4)GlcNAc(b1-4)[Fuc(a1-6)]GlcNAc. In a few lines:
as §1

In assay [6] the target is Gal(b1-4)GlcNAc(b1-3)Gal(b1-4)GlcNAc(b1-3)Gal(b1-4)GlcNAc(b1-3)Gal(b1-4)GlcNAc(b1-2)[Gal(b1-4)GlcNAc(b1-3)Gal(b1-4)GlcNAc(b1-3)Gal(b1-4)GlcNAc(b1-3)Gal(b1-4)GlcNAc(b1-6)]Man(a1-6)[Gal(b1-4)GlcNAc(b1-3)Gal(b1-4)GlcNAc(b1-3)Gal(b1-4)GlcNAc(b1-3)Gal(b1-4)GlcNAc(b1-2)Man(a1-3)]Man(b1-4)GlcNAc(b1-4)[Fuc(a1-6)]GlcNAc. In a few lines: as §1
Assay [7] concerns the target Gal(b1-4)GlcNAc(b1-3)Gal(b1-4)GlcNAc(b1-3)Gal(b1-4)GlcNAc(b1-3)Gal(b1-4)GlcNAc(b1-3)Gal(b1-4)GlcNAc(b1-2)Man(a1-3)[Gal(b1-4)GlcNAc(b1-3)Gal(b1-4)GlcNAc(b1-3)Gal(b1-4)GlcNAc(b1-3)Gal(b1-4)GlcNAc(b1-3)Gal(b1-4)GlcNAc(b1-2)Man(a1-6)]Man(b1-4)GlcNAc(b1-4)GlcNAc. In a few lines: as §1
In assay [8] the target is Gal(b1-4)GlcNAc(b1-3)Gal(b1-4)GlcNAc(b1-3)Gal(b1-4)GlcNAc(b1-3)Gal(b1-4)GlcNAc(b1-3)Gal(b1-4)GlcNAc(b1-2)Man(a1-3)[Gal(b1-4)GlcNAc(b1-3)Gal(b1-4)GlcNAc(b1-3)Gal(b1-4)GlcNAc(b1-3)Gal(b1-4)GlcNAc(b1-3)Gal(b1-4)GlcNAc(b1-2)Man(a1-6)]Man(b1-4)GlcNAc(b1-4)[Fuc(a1-6)]GlcNAc. An outline of the steps: as §1
In assay [9] the target is Gal(b1-4)GlcNAc(b1-3)Gal(b1-4)GlcNAc(b1-3)Gal(b1-4)GlcNAc(b1-3)Gal(b1-4)GlcNAc(b1-3)Gal(b1-4)GlcNAc(b1-2)[Gal(b1-4)GlcNAc(b1-3)Gal(b1-4)GlcNAc(b1-3)Gal(b1-4)GlcNAc(b1-3)Gal(b1-4)GlcNAc(b1-3)Gal(b1-4)GlcNAc(b1-6)]Man(a1-6)[Gal(b1-4)GlcNAc(b1-3)Gal(b1-4)GlcNAc(b1-3)Gal(b1-4)GlcNAc(b1-3)Gal(b1-4)GlcNAc(b1-3)Gal(b1-4)GlcNAc(b1-2)Man(a1-3)]Man(b1-4)GlcNAc(b1-4)[Fuc(a1-6)]GlcNAc. An outline of the steps:
as §1

Assay [10] deals with Gal(b1-4)GlcNAc(b1-3)Gal(b1-4)GlcNAc(b1-3)Gal(b1-4)GlcNAc(b1-3)Gal(b1-4)GlcNAc(b1-3)Gal(b1-4)GlcNAc(b1-3)Gal(b1-4)GlcNAc(b1-2)Man(a1-3)[Gal(b1-4)GlcNAc(b1-3)Gal(b1-4)GlcNAc(b1-3)Gal(b1-4)GlcNAc(b1-3)Gal(b1-4)GlcNAc(b1-3)Gal(b1-4)GlcNAc(b1-3)Gal(b1-4)GlcNAc(b1-2)Man(a1-6)]Man(b1-4)GlcNAc(b1-4)GlcNAc. An outline of the steps:
as §1

Assay [11] has as its target Gal(b1-4)GlcNAc(b1-3)Gal(b1-4)GlcNAc(b1-3)GalNAc. In a few lines: as §1
The target of assay [12] is Gal(b1-4)GlcNAc(b1-3)Gal(b1-4)GlcNAc(b1-3)[Gal(b1-4)GlcNAc(b1-3)Gal(b1-4)GlcNAc(b1-6)]GalNAc. In a few lines:
as §1

For assay [13], the target named is Gal(b1-4)GlcNAc(b1-3)Gal(b1-4)GlcNAc(b1-6)[Gal(b1-3)]GalNAc. An outline of the steps:
as §1

The target of assay [14] is Gal(b1-4)GlcNAc(b1-3)Gal(b1-4)[Fuc(a1-3)]GlcNAc(b1-3)Gal(b1-4)[Fuc(a1-3)]GlcNAc. In a few lines:
as §1

In assay [15] the target is Gal(b1-4)GlcNAc(b1-3)GalNAc. In a few lines:
as §1

The target in assay [16] is Gal(b1-4)GlcNAc(b1-3)[Fuc(a1-3)GlcNAc(b1-6)]Gal(b1-4)Glc. In a few lines:
as §1

In assay [17] the target is Gal(b1-4)GlcNAc(b1-3)[Gal(b1-4)GlcNAc(b1-6)]Gal(b1-4)GlcNAc. In a few lines:
as §1

Assay [18] addresses Gal(b1-4)GlcNAc(b1-3)[GlcNAc(b1-6)]Gal(b1-4)GlcNAc. An outline of the steps: as §1
Assay [19] has as its target Gal(b1-4)GlcNAc(b1-6)Gal(b1-4)GlcNAc. An outline of the steps: as §1

This is one part of the list.

B1: PX9937I-bfa-538-26-538 (Bacteroides fragilis) (protein)
chain: DKLDLSPIDYYGSGSYWKTEAQATAYIDGIHKHLRDAAWQHTITFGELRGGRFITGASSDGMGVSNGDIILQNFDETHTGVSKFGDLFGRITNLNLFIARVTDATYLSDEMKNFYLGEVYGLRAFYYFDLYRIYGGVPLRLTADVVEGVIDPNKLYMARSTPKEVMTQIKSDLNKSMEYFGNMNDFDPYKRGKKVYWSKAATECLMGEVYLWTSKVTTGDDVANPADLTIAKTHLESVLNNYNLKMLDDFSQVFNAKNKANDEIIFAIRFLEGEATNSNGTFTYNVGTGSTKNRYQANGEVFGDALDIQNTGNQTYEYNKAVYQNFDDADTRKEATFIASYNKDGKTGELSLYGTHVRKNIGYVNAQGARVYCGDYIFYRLPWVYLTLAEIANMEGDNAAVAKYINLVRKRAYGNAWDETLYAYPETADFTTNELAILHEKDKEFIQEGQRWWDLRRMTLTKGGTPLVFCKEGSLLGDAPILNKSTEAHKLLWPIEKTMLNKDPALEQTPGYK
On to B1, for which the “glycan array binding signal (z-score)” value came out at 6.36 in [1]; 1.65 in assay [2]; 0.977 in assay [3]; 1.43 in assay [4]; 1.15 in assay [5]; 0.599 in assay [6]. In addition, the “glycan array binding signal (z-score)” value is 1.74 in assay [7]; 0.304 in [8]; 0.003 in [9]; 1.09 in assay [10]; -0.178 in assay [11]; -0.161 in [12]. In addition, the “glycan array binding signal (z-score)” value in assay [13] was 3.46; in assay [14], -1.27; in assay [15] it was -0.439; in [16], -0.333; in assay [17] it was -0.046; in assay [18], 0.803. The “glycan array binding signal (z-score)” value in assay [19] is 1.23.
